## Library screen at single concentrations

The values are deposited in ChEMBL (CHEMBL3988442, “University of Dundee, Small-Polar-MMV Screening Library” (2021)).

Results are given as percent effect.
How 0% and 100% were set is not recorded. Most values in the screen are low, and negative values occur.
The compounds are a random part of those screened.
Two or more numbers in one place are separate tests of the same structure; such repeats can differ widely.

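Phenotypic screen: M. tuberculosis growth, cholesterol and DPPC medium, 4 days; the read-out is not stated. Compounds at 50 µM. Higher reads as more growth inhibition (inferred: compounds with an IC50 in retests scored well above the rest). Of about 69,000 compounds tested this way, about 370 (0.54%) reached 50% or more in at least one test.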

Compound | percent effect
Cc1nc2c(N(C)Cc3ccnn3C)nc(N)nc2n1C | -14.87
CCc1nnc(CN(C)c2nc(C(C)C)nc3c2cnn3C)o1 | -24.48
CC(c1cccc(Cl)c1)N(C)CCS(=O)(=O)CCC(N)=O (stereo not shown) | 7.312
Cc1ccc(Br)cc1NC(=O)NC1CCC2(C1)OCCO2 (stereo not shown) | -16.91
CC1CN(c2ccc(CNC(=O)c3ccn(C)c(=O)c3)cn2)CCO1 (stereo not shown) | 1.647
O=C(NCCNc1ccc(C(F)(F)F)cn1)c1ccc(Br)cc1 | 28.9
CN(C)C(=O)CN1CC[C@]2(CN(CC3CC3)C[C@H]2c2ccccc2)C1=O.O=C(O)C(F)(F)F | 7.701
Cc1cnn(CC2CCCN2CC(=O)N(C)Cc2ccco2)c1 (stereo not shown) | 5.163
CCOCC1CN(c2ncc(F)cn2)Cc2cn(CC)nc21 (stereo not shown) | -9.096
CC(C)(C)c1ncc(CNCC2CN(C3CC3)CCO2)s1 (stereo not shown) | 8.711
CCN(C(=O)c1cc2c([nH]c1=O)CCCC2=O)C1CCCCC1 | -5.155
O=C(c1cccc(Cn2ccnc2)c1)N1CCCC(n2ccnc2)C1 (stereo not shown) | -15.23
CCn1cc(C(=O)N2CCOC(c3nc(-c4cccs4)no3)C2)cn1 (stereo not shown) | 13.96
CCCNC(=O)Cc1c(C)nc2c(c1C)c(=O)[nH]n2C | -9.35
N#Cc1c(F)cccc1N1CCN(S(=O)(=O)c2cccs2)CC1 | -8.19
CCCS(=O)(=O)N1CCC(NC(=O)c2ccc(Cl)s2)CC1 | -10.32
Cn1ccc(C(=O)NC2CCC23CCN(C(=O)c2ccccn2)CC3)c1 (stereo not shown) | -5.202
O=C(Nc1ccc2ncsc2c1)N1CCCN([C@H]2COC[C@@H]2O)CC1 | -13.41
CC(C)OCCn1nnnc1Cc1ccc(Br)cc1 | 68.8
O=C(c1cccs1)N1CC(C(=O)N2CCCC2)C2(CCOCC2)C1 (stereo not shown) | -11.05
Cc1cc(F)cc2c(N3CCC(S(N)(=O)=O)CC3)c(C#N)cnc12 | -14.56
COC(=O)N1CCC(Nc2ccc(C#N)c(Cl)c2)C1 (stereo not shown) | 16.57
CN(C)Cc1cnc(C2CCN(C(=O)c3cc(F)cc(F)c3)C2)[nH]1 (stereo not shown) | -5.714 & -14.46
O=C(O)C(F)(F)F.[H][C@@]12CCN(c3ncccn3)C[C@]1([H])[C@H](C(=O)NC(C)C)CCO2 | -31.29
COCCN(Cc1ccncc1)C(=O)C1COc2ccccc2C1 (stereo not shown) | -5.909
[H][C@@]12OCCN(Cc3cccc(F)c3)[C@@]1([H])CC[C@@H]2OCc1ccccn1 | -1.236
O=C(O)C(F)(F)F.O=C(O)C(F)(F)F.[H][C@@]12COC[C@]1(C(=O)NCc1ccccn1)CN(Cc1cnn(C)c1)C2 | 1.009
Cc1cccc2c1OCCC2NCc1c(C(C)C)nn(C)c1N(C)C (stereo not shown) | 8.061
Cc1nnc(C2CCN(C(=O)c3ccc4nccnc4c3)CC2)s1 | 9.34
CC(C)(C)NC(=O)COc1ccc(CNCc2ccccn2)cc1 | -11.22
Cn1nc2c(cc1=O)CN(Cc1nc(N)c3ccccc3n1)CC2 | -46.29
Cc1ccc(NC(=O)N2CCOC(C)C2)cc1Cl (stereo not shown) | -6.956
O=C(O)C(F)(F)F.[H][C@@]12CCCO[C@]1([H])[C@H](N(C)C)CN2C(=O)Cc1cccc(F)c1 | 9.308
NC(=O)CC1CCCCN1C(=O)c1cccc(C(F)(F)F)c1 (stereo not shown) | 7.197
Cc1nn(CCC(=O)NC2CCS(=O)(=O)C2)c(C)c1Br (stereo not shown) | -13.8
Cc1ccc(-c2nc(C(=O)N3CCN(C(=O)N(C)C)CC3)cs2)c(C)c1 | -5.906
CNC(=O)c1cnn2c(C3CCCN3C)ccnc12 (stereo not shown) | -1.153
CC(C)Oc1ncnc2c1CCN(C(=O)c1cccn1C)CC2 | -18.79
[H][C@]12CCN(c3cc(OC)ncn3)[C@@]1([H])C[C@@H](C(=O)NCCOC)O2 | -11.32
Cc1ccc(-c2nc(CN3CCN(C(=O)C4CC4)CC3)cs2)o1 | 18.29
CCN(CC)C(C(=O)NCc1ccc(N2CCCC2)nc1)C(C)C (stereo not shown) | -13.39
[H][C@@]12CC(=O)N(CC)[C@@]1([H])CCN2S(=O)(=O)Cc1ccc(C)cc1 | -7.754
[H][C@@]12CN(Cc3c(C)noc3C)C[C@]1([H])OCCN2Cc1cnn(C)c1 | -0.2443 & -3.386
COc1cc(N2CCC3(CCCN(C(=O)c4cccnc4)C3)C2)ncn1.O=C(O)C(F)(F)F (stereo not shown) | -21.64
O=C(O)c1ccc(CN2CCC(c3ccnc4ccnn34)CC2)cc1 | -0.2474
CCn1nnc2c1C(COCCN(C)C)CN(S(C)(=O)=O)C2.O=C(O)C(F)(F)F (stereo not shown) | 5.222
CN1CC(C)(C)CN(C(=O)CCc2ccccc2)CC1=O | -11.51
CC(C)c1nc(C2CCCN2CCS(=O)(=O)c2ccccc2)no1 (stereo not shown) | -20.99
N#CCCNC(=O)CSc1cc(F)ccc1F | -10.85
CSc1nccc(NCc2cc3n(n2)CCCN(S(C)(=O)=O)C3)n1 | 2.179
O=C1CN(CCCNS(=O)(=O)c2cccc(C(=O)NC3CC3)c2)CCN1 | -0.02863
CNC(=O)CN1C(=O)CN(C(=O)COC)CCC(OC)c2ccccc21 (stereo not shown) | -25.76
O=C(O)C(F)(F)F.[H][C@]12C[C@@H](Cn3cncn3)N(C(C)=O)[C@@]1([H])CCN(c1ncc(F)cn1)C2 | 13.57
Cc1cc(O)nc(C2CCCN(Cc3ccncc3)C2)n1 (stereo not shown) | -10.08
Cc1ccccc1CN1CCC2(CCCN2C(=O)C(C)C)CC1 | -2.461
c1ccc2c(N3CCOCC3)cnnc2c1 | 12.84
O=C(O)C(F)(F)F.O=C(c1cccc(O)c1)N1CCC2(CCN2c2ncccn2)C1 (stereo not shown) | 20.7
O=C(C1CCCO1)N1CCC(Cn2cc(C3CCCC3)nn2)CC1 (stereo not shown) | 13.63
CCn1ncc2c1C(COCC1CC1)N(Cc1cnn(C)c1)CC2.O=C(O)C(F)(F)F.O=C(O)C(F)(F)F.O=C(O)C(F)(F)F (stereo not shown) | -1.565
N#Cc1cccc(CNc2cc(CO)ccc2Cl)c1 | 11.39
Cc1cc(CN2CCN(C(=O)NCc3ccc(C)s3)CC2)on1 | -14.52
Cc1nccnc1C1CCN(C(=O)C(C)C)CC1 | -6.269 & -11.79
Cn1cnnc1C1CCCN(C(=O)NCCCn2cccn2)C1 (stereo not shown) | -8.679
O=C(c1ccc[nH]1)N1CCOCC2(CCN(C3CCOCC3)C2)C1 (stereo not shown) | 8.74
Cc1ccc2nc(-c3cnc(N)nc3)cc(C(=O)N(C)C)c2c1 | -10.63
Cc1ccc(CC(=O)N2CCN(C(C)c3ccccc3F)CC2)cn1 (stereo not shown) | -57.35 & 4.175
CC(C)c1noc(CCC(=O)NCC2CCC(C(N)=O)CC2)n1 (stereo not shown) | 25.15
Cc1nc(N(C)C)nc2c1COCC21CCN(C(=O)NCC(C)C)C1 (stereo not shown) | -0.5244
Cc1cccc(C(=O)N2CCCCC2c2ccc(CN(C)C)cc2)n1 (stereo not shown) | -16.27
[H][C@]12CC[C@]([H])(CN(C(=O)c3ccc(N(CC)CC)cc3)C1)N(CCOC)C2 | -28.05
Cc1noc(C(C)N2CCN(c3ccc(C#N)cn3)CC2)n1 (stereo not shown) | -20.36
O=C(O)C(F)(F)F.[H][C@@]12CCN(CC3CCOC3)[C@@]1([H])CC(=O)N2Cc1csc(C)n1 (stereo partly shown) | 15.29
O=C(CCn1ccccc1=O)Nc1ccc(C(=O)O)cc1 | -23.22
Cc1ccc(C(=O)N(C)Cc2ccc(Br)s2)c(=O)[nH]1 | 7.049
CCCOCCN1CCc2[nH]c(-c3ccc(OC)cc3)nc2C1 | -2.493
CC(C)Cn1cncc1Cn1cccc(C(F)(F)F)c1=O | -18.56
COC[C@H]1CCC[C@]12CN(S(=O)(=O)c1cccs1)CCO2 | -3.12
COc1ccc(C(=O)N2CCC(Oc3ccc(C)cc3)(C(=O)O)CC2)o1 | -14.37
CCCS(=O)(=O)NCCc1ncc(C)s1 | -3.971
CNc1nc(C2CCCN(C(=O)C(C)(C)OC)C2)nc2c1CN(C)CC2 (stereo not shown) | -7.082
Cc1ccsc1CN(C)C(=O)Cn1nc(-c2ccc(F)cc2)oc1=O | -15.94
CC(NC(=O)N1CCN(c2ccccc2O)CC1)c1nncn1C (stereo not shown) | -2.422
Cc1nc(CN(C)C2CCN(CC(=O)NC3CCOCC3)C2)no1 (stereo not shown) | -12.7
CC(C)N(C)CC(=O)NCC(O)c1cc2ccccc2s1 (stereo not shown) | 10.15
Cn1c(NCCN2CCCCCC2)c(C#N)c(=O)n(C)c1=O | -34.33
Cc1cc(C2NC(=O)CN2Cc2ccc(Br)cc2)cc(C)c1O (stereo not shown) | -26.05
Cc1cnc(CN(C)C2CCN(Cc3ccc(Cl)s3)C2)o1 (stereo not shown) | -3.438
Cc1cc(CN(C)Cc2cnc3c(c2)c(C)nn3C)no1 | -6.728
COc1cccc(OC2CN(C(=O)c3ccoc3C)C2)c1 | -12.64
O=C1CCSCC(C(=O)N2CCN(C3CCCCC3)CC2)N1 (stereo not shown) | 4.971
Cc1cc(N2CCC(c3nccn3Cc3cscn3)CC2)ccn1 | -2.64 & 0.03286
Cc1nc(N2CCCC2)nc2c1CN(C(C)C)CC2.O=C(O)C(F)(F)F | 32.74

Some entries from above, unchanged:

* Cc1nc(CN(C)C2CCN(CC(=O)NC3CCOCC3)C2)no1 (stereo not shown) : -12.7%
* Cn1cnnc1C1CCCN(C(=O)NCCCn2cccn2)C1 (stereo not shown) : -8.679%
* Cc1nccnc1C1CCN(C(=O)C(C)C)CC1 : -6.269% & -11.79%
* [H][C@@]12CC(=O)N(CC)[C@@]1([H])CCN2S(=O)(=O)Cc1ccc(C)cc1 : -7.754%
* [H][C@]12CCN(c3cc(OC)ncn3)[C@@]1([H])C[C@@H](C(=O)NCCOC)O2 : -11.32%